Differences between knockout arms are mostly noise.
System: HCC-38
Assay: relative cell number vs DMSO control (72 h) (% of DMSO); higher = less growth inhibition (more cells)
Method: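 QMAP-Seq: a pool of 5 breast cancer cell lines (ZR-75-1, SKBR3, HCC-38, MDA-MB-231, BT-20), each carrying 12 doxycycline-inducible Cas9 sgRNA perturbations (11 knockouts plus non-targeting sgNT), was treated with compounds for 72 h at four 10-fold doses (10 nM-10 uM or 1 nM-1 uM range). Barcodes were amplified and sequenced, and cell number was interpolated from 293T spike-in standard curves. The result is expressed as % of the median of DMSO wells. Two biological replicates.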

Cc1sc2c(c1C)C(c1ccc(Cl)cc1)=N[C@@H](CC(=O)OC(C)(C)C)c1nnc(C)n1-2 [(+)-JQ1]
Conditions	relative cell number
sgRNA knockout: sgATF3, 10 nM	102
sgRNA knockout: sgATF3, 100 nM	118
sgRNA knockout: sgATF3, 1000 nM	91.2
sgRNA knockout: sgATF3, 10000 nM	65.2
sgRNA knockout: sgATF4, 10 nM	103
sgRNA knockout: sgATF4, 100 nM	114
sgRNA knockout: sgATF4, 1000 nM	87
sgRNA knockout: sgATF4, 10000 nM	69.7
sgRNA knockout: sgATF6, 10 nM	94.5
sgRNA knockout: sgATF6, 100 nM	121
sgRNA knockout: sgATF6, 1000 nM	99.16
sgRNA knockout: sgATF6, 10000 nM	53.1
sgRNA knockout: sgATG7, 10 nM	102
sgRNA knockout: sgATG7, 100 nM	107
sgRNA knockout: sgATG7, 1000 nM	88.8
sgRNA knockout: sgATG7, 10000 nM	65.7
sgRNA knockout: sgERN1, 10 nM	104
sgRNA knockout: sgERN1, 100 nM	117
sgRNA knockout: sgERN1, 1000 nM	98.3
sgRNA knockout: sgERN1, 10000 nM	69.7
sgRNA knockout: sgHSF1, 10 nM	90.8
sgRNA knockout: sgHSF1, 100 nM	96.3
sgRNA knockout: sgHSF1, 1000 nM	98.9
sgRNA knockout: sgHSF1, 10000 nM	74.2
sgRNA knockout: sgHSF2, 10 nM	107
sgRNA knockout: sgHSF2, 100 nM	122
sgRNA knockout: sgHSF2, 1000 nM	87.9
sgRNA knockout: sgHSF2, 10000 nM	64.5
sgRNA knockout: sgKEAP1, 10 nM	108
sgRNA knockout: sgKEAP1, 100 nM	120.1
sgRNA knockout: sgKEAP1, 1000 nM	85.9
sgRNA knockout: sgKEAP1, 10000 nM	56.7
sgRNA knockout: sgNFE2L2, 10 nM	102
sgRNA knockout: sgNFE2L2, 100 nM	106
sgRNA knockout: sgNFE2L2, 1000 nM	89.4
sgRNA knockout: sgNFE2L2, 10000 nM	75.2
sgRNA knockout: sgSLC35F2, 10 nM	102
sgRNA knockout: sgSLC35F2, 100 nM	126
sgRNA knockout: sgSLC35F2, 1000 nM	85.7
sgRNA knockout: sgSLC35F2, 10000 nM	62.4
sgRNA knockout: sgXBP1, 10 nM	99.6
sgRNA knockout: sgXBP1, 100 nM	116
sgRNA knockout: sgXBP1, 1000 nM	86.8
sgRNA knockout: sgXBP1, 10000 nM	69.2

COc1cc2c(Oc3ccc4[nH]c(C)cc4c3F)ncnc2cc1OCCCN1CCCC1 [Cediranib]
Conditions	relative cell number
sgRNA knockout: sgATF3, 10 nM	121
sgRNA knockout: sgATF3, 100 nM	111
sgRNA knockout: sgATF3, 1000 nM	67.9
sgRNA knockout: sgATF3, 10000 nM	9.08
sgRNA knockout: sgATF4, 10 nM	121
sgRNA knockout: sgATF4, 100 nM	106
sgRNA knockout: sgATF4, 1000 nM	61.1
sgRNA knockout: sgATF4, 10000 nM	8.09
sgRNA knockout: sgATF6, 10 nM	124
sgRNA knockout: sgATF6, 100 nM	118
sgRNA knockout: sgATF6, 1000 nM	80.4
sgRNA knockout: sgATF6, 10000 nM	6.79
sgRNA knockout: sgATG7, 10 nM	117
sgRNA knockout: sgATG7, 100 nM	108
sgRNA knockout: sgATG7, 1000 nM	74.5
sgRNA knockout: sgATG7, 10000 nM	10.1
sgRNA knockout: sgERN1, 10 nM	114
sgRNA knockout: sgERN1, 100 nM	113
sgRNA knockout: sgERN1, 1000 nM	71.4
sgRNA knockout: sgERN1, 10000 nM	8.27
sgRNA knockout: sgHSF1, 10 nM	124
sgRNA knockout: sgHSF1, 100 nM	127
sgRNA knockout: sgHSF1, 1000 nM	78.4
sgRNA knockout: sgHSF1, 10000 nM	10.16
sgRNA knockout: sgHSF2, 10 nM	133
sgRNA knockout: sgHSF2, 100 nM	122
sgRNA knockout: sgHSF2, 1000 nM	77.6
sgRNA knockout: sgHSF2, 10000 nM	10.6
sgRNA knockout: sgKEAP1, 10 nM	160
sgRNA knockout: sgKEAP1, 100 nM	125
sgRNA knockout: sgKEAP1, 1000 nM	95
sgRNA knockout: sgKEAP1, 10000 nM	9.64
sgRNA knockout: sgNFE2L2, 10 nM	112
sgRNA knockout: sgNFE2L2, 100 nM	101
sgRNA knockout: sgNFE2L2, 1000 nM	59.1
sgRNA knockout: sgNFE2L2, 10000 nM	8.261
sgRNA knockout: sgSLC35F2, 10 nM	118
sgRNA knockout: sgSLC35F2, 100 nM	106
sgRNA knockout: sgSLC35F2, 1000 nM	67.1
sgRNA knockout: sgSLC35F2, 10000 nM	7.25
sgRNA knockout: sgXBP1, 10 nM	117
sgRNA knockout: sgXBP1, 100 nM	112
sgRNA knockout: sgXBP1, 1000 nM	70.2
sgRNA knockout: sgXBP1, 10000 nM	7.49

CC(=O)O[C@H]1C(=O)[C@@]2(C)[C@H]([C@H](OC(=O)c3ccccc3)[C@]3(O)C[C@H](OC(=O)[C@H](O)[C@@H](NC(=O)c4ccccc4)c4ccccc4)C(C)=C1C3(C)C)[C@]1(OC(C)=O)CO[C@@H]1C[C@@H]2O [Paclitaxel]
Conditions	relative cell number
sgRNA knockout: sgATF3, 10 nM	31.5
sgRNA knockout: sgATF3, 100 nM	16.7
sgRNA knockout: sgATF3, 1000 nM	20.4
sgRNA knockout: sgATF3, 10000 nM	23.9
sgRNA knockout: sgATF4, 10 nM	31
sgRNA knockout: sgATF4, 100 nM	13.6
sgRNA knockout: sgATF4, 1000 nM	18.7
sgRNA knockout: sgATF4, 10000 nM	20.82
sgRNA knockout: sgATF6, 10 nM	29.8
sgRNA knockout: sgATF6, 100 nM	17.5
sgRNA knockout: sgATF6, 1000 nM	19.9
sgRNA knockout: sgATF6, 10000 nM	35
sgRNA knockout: sgATG7, 10 nM	31.9
sgRNA knockout: sgATG7, 100 nM	14
sgRNA knockout: sgATG7, 1000 nM	18.1
sgRNA knockout: sgATG7, 10000 nM	24.07
sgRNA knockout: sgERN1, 10 nM	31.26
sgRNA knockout: sgERN1, 100 nM	17.7
sgRNA knockout: sgERN1, 1000 nM	22.9
sgRNA knockout: sgERN1, 10000 nM	25.8
sgRNA knockout: sgHSF1, 10 nM	30.4
sgRNA knockout: sgHSF1, 100 nM	19.6
sgRNA knockout: sgHSF1, 1000 nM	14.7
sgRNA knockout: sgHSF1, 10000 nM	35.5
sgRNA knockout: sgHSF2, 10 nM	29.7
sgRNA knockout: sgHSF2, 100 nM	23
sgRNA knockout: sgHSF2, 1000 nM	19.3
sgRNA knockout: sgHSF2, 10000 nM	27.5
sgRNA knockout: sgKEAP1, 10 nM	38.4
sgRNA knockout: sgKEAP1, 100 nM	18.2
sgRNA knockout: sgKEAP1, 1000 nM	20.2
sgRNA knockout: sgKEAP1, 10000 nM	33.9
sgRNA knockout: sgNFE2L2, 10 nM	32.3
sgRNA knockout: sgNFE2L2, 100 nM	12.6
sgRNA knockout: sgNFE2L2, 1000 nM	16.5
sgRNA knockout: sgNFE2L2, 10000 nM	20.3
sgRNA knockout: sgSLC35F2, 10 nM	30.1
sgRNA knockout: sgSLC35F2, 100 nM	13.2
sgRNA knockout: sgSLC35F2, 1000 nM	21.1
sgRNA knockout: sgSLC35F2, 10000 nM	22.4
sgRNA knockout: sgXBP1, 10 nM	28.2
sgRNA knockout: sgXBP1, 100 nM	15.8
sgRNA knockout: sgXBP1, 1000 nM	17.2
sgRNA knockout: sgXBP1, 10000 nM	25.2
